Experimental findings from ChEMBL document CHEMBL4303122, “Identification of potential treatments for COVID-19 through artificial intelligence-enabled phenomic analysis of human cells infected with SARS-CoV-2” (2020) are described below.

Each structure is given as a SMILES string. In all, about 1,600 compounds were measured (“Hit score”: median about 0.13, highest 2% from about 0.46 on). Some of the results follow.

The subject of this assay is SARS-CoV-2. As to the kind of experiment: Antiviral activity against SARS-CoV-2 (USA-WA1/2020 strain) measured by imaging in HRCE cells at MOI 0.4 after 96 hrs (reported as hit score from 0-1 for on-disease vs off-disease activity: scores >0.6 considered hits). It is filed as functional, Homo sapiens.
Turning to `CCC(CC)COC(=O)[C@H](C)N[P@](=O)(OC[C@H]1O[C@@](C#N)(c2ccc3c(N)ncnn23)[C@H](O)[C@@H]1O)Oc1ccccc1`, the Hit score is on record as 0.9631.
Take `Cc1ccccc1-n1c(CF)nc2ccc(N)cc2c1=O` [AFLOQUALONE]: the Hit score is listed as 0.1208.
To `COc1nccnc1NS(=O)(=O)c1ccc(N)cc1` belongs 0.2416.
In turn, `CC(=O)c1c(C)c2cnc(Nc3ccc(N4CCNCC4)cn3)nc2n(C2CCCC2)c1=O` [PALBOCICLIB] gave a Hit score of 0.007482.
To `CC(C)OC(=O)C(C)(C)Oc1ccc(C(=O)c2ccc(Cl)cc2)cc1` [FENOFIBRATE] belongs 0.1371; to `OCCOc1ccc(/C(=C(/CCCl)c2ccccc2)c2ccccc2)cc1` [OSPEMIFENE], 0.1219.
In the case of `Cc1ccc(NC(=O)C2(c3ccc4c(c3)OC(F)(F)O4)CC2)nc1-c1cccc(C(=O)O)c1` [LUMACAFTOR] it was 0.04797; in that of `CO[C@@]1(NC(=O)C2SC(=C(C(N)=O)C(=O)O)S2)C(=O)N2C(C(=O)O)=C(CSc3nnnn3C)CS[C@@H]21` (stereo partly specified) [CEFOTETAN], 0.1396.
Molecule `COc1cc([C@@H]2c3cc4c(cc3[C@@H](O[C@@H]3O[C@@H]5CO[C@@H](C)O[C@H]5[C@H](O)[C@H]3O)[C@H]3COC(=O)[C@H]23)OCO4)cc(OC)c1OP(=O)(O)O` [ETOPOSIDE PHOSPHATE] showed a Hit score of 0.05858.
In the case of `NC(=O)CC[C@H](N)C(=O)O` [GLUTAMINE] it was 0.1913; in that of `O=S(=O)(O)Oc1ccc(C(c2ccc(OS(=O)(=O)O)cc2)c2ccccn2)cc1` [PICOSULFURIC ACID], 0.001463; in that of `O=C(O[C@H]1C[N+]2(CCCOc3ccccc3)CCC1CC2)C(O)(c1cccs1)c1cccs1`, 0.1761.
To `CCOC(=O)N1CCC(=C2c3ccc(Cl)cc3CCc3cccnc32)CC1` [LORATADINE] belongs 0.1919; to `CC(C)Cc1ccc(C(C)C(=O)NO)cc1` (stereo unspecified) [IBUPROXAM], 0.1712.
To `C[C@H](O)[C@H](O)[C@H]1CNc2nc(N)[nH]c(=O)c2N1` [SAPROPTERIN] belongs 0.04545; to `CC(C)(C)N1CCC(c2ccccc2)(c2ccccc2)CC1` [BUDIPINE], 0.4384.
Take `NC(=O)c1ccccc1O` [SALICYLAMIDE]: the Hit score is recorded as 0.3054.
To `COc1ccc(C(=O)CCC(=O)O)c2ccccc12` [MENBUTONE] belongs 0.04313.
`CS(=O)(=O)c1ccc(C(=O)Nc2ccc(Cl)c(-c3ccccn3)c2)c(Cl)c1` [VISMODEGIB]: the Hit score was found to be 0.5244.
Turning to `Sc1ncnc2nc[nH]c12` [MERCAPTOPURINE ANHYDROUS], the Hit score worked out at 0.2212.
Consider `COc1ccc(CC(C)NCC(O)c2ccc(O)c(NC=O)c2)cc1` (stereo unspecified) [FORMOTEROL], for which the Hit score is recorded as -0.2297.
To `CC(C)C[C@H](NC(=O)[C@H](Cc1ccccc1)NC(=O)c1cnccn1)B(O)O` [BORTEZOMIB] belongs -0.9654.
To `CO/N=C(\C(=O)N[C@@H]1C(=O)N2C(C(=O)O)=C(CSc3nc(=O)c(O)nn3C)CS[C@H]12)c1csc(N)n1` [CEFTRIAXONE] belongs 0.07003; to `COCCCC/C(=N\OCCN)c1ccc(C(F)(F)F)cc1` [FLUVOXAMINE], 0.0531; to `CC(C)C(=O)OC[C@@]1(N=[N+]=[N-])O[C@@H](n2ccc(N)nc2=O)[C@H](OC(=O)C(C)C)[C@@H]1OC(=O)C(C)C` [BALAPIRAVIR], 0.3201.
To `COC(=O)[C@H](c1ccccc1Cl)N1CCc2sccc2C1` [CLOPIDOGREL] belongs 0.07177.
In turn, `NC(=O)N[C@@H](CCC(=O)O)C(=O)O` [CARGLUMIC ACID] displayed a Hit score of 0.1387.
In the case of `Cl.Nc1ccn([C@@H]2O[C@H](CO)[C@@H](O)C2(F)F)c(=O)n1` [GEMCITABINE HYDROCHLORIDE] it was 0.2972; in that of `Clc1ccc(C(OCCN2CCCCC2)c2ccccc2)cc1` (stereo unspecified) [CLOPERASTINE], 0.5618; in that of `CC/C=C\C/C=C\C/C=C\C/C=C\C/C=C\CCCC(=O)O` [ICOSAPENT], 0.1484.
To `CO[C@H]1/C=C/O[C@@]2(C)Oc3c(C)c(O)c4c(O)c(c(/C=N/N5CCN(C)CC5)c(O)c4c3C2=O)NC(=O)/C(C)=C\C=C\[C@H](C)[C@H](O)[C@@H](C)[C@@H](O)[C@@H](C)[C@H](OC(C)=O)[C@@H]1C` [RIFAMPIN] belongs 0.08736.
Molecule `CCCSc1ccc2[nH]c(NC(=O)OC)nc2c1` [ALBENDAZOLE] yielded a Hit score of 0.1188.
In the case of `CCc1ccc(CCOc2ccc(CC3SC(=O)NC3=O)cc2)nc1` (stereo unspecified) [PIOGLITAZONE] it was 0.08808; in that of `Cc1ccc(N(CC2=NCCN2)c2cccc(O)c2)cc1` [PHENTOLAMINE], 0.06841.
To `CNC[C@@H](O)c1ccc(O)c(O)c1` [L-ADRENALINE] belongs -0.1051; to `CC(=O)NC(CSC/C=C(\C)CC/C=C(\C)CCC=C(C)C)C(=O)O` (stereo unspecified), 0.0647; to `Cc1ncc([N+](=O)[O-])n1CC(O)CN1CCOCC1` (stereo unspecified) [MORINIDAZOLE], 0.04545.
For `Clc1ccc2c(c1)C(N1CCNCC1)=Nc1ccccc1O2` [AMOXAPINE], the Hit score was determined as 0.1027.
`O=C(Cn1ccnc1[N+](=O)[O-])NCc1ccccc1` [BENZNIDAZOLE] had a Hit score of 0.09787.
The molecule `O=C(c1cc(Cc2n[nH]c(=O)c3ccccc23)ccc1F)N1CCN(C(=O)C2CC2)CC1` [OLAPARIB] gave a Hit score of 0.1367.
Turning to `CC[C@H]1OC(=O)[C@@](C)(F)C(=O)[C@H](C)[C@@H](O[C@@H]2O[C@H](C)C[C@H](N(C)C)[C@H]2O)[C@](C)(OC)C[C@@H](C)C(=O)[C@H](C)[C@H]2N(CCCCn3cc(-c4cccc(N)c4)nn3)C(=O)O[C@]12C` [SOLITHROMYCIN], the Hit score was found to be 0.2407.
As to `CC(C)(Oc1ccc(CCNC(=O)c2ccc(Cl)cc2)cc1)C(=O)O` [BEZAFIBRATE], the Hit score was -0.02924.
In the case of `OCCN1CCN(CCCN2c3ccccc3Sc3ccc(C(F)(F)F)cc32)CC1` [FLUPHENAZINE] it was 0.1224; in that of `CC[C@H]1OC(=O)[C@H](C)[C@@H](O[C@H]2C[C@@](C)(OC)[C@@H](O)[C@H](C)O2)[C@H](C)[C@@H](O[C@@H]2O[C@H](C)C[C@H](N(C)C)[C@H]2O)[C@](C)(O)C[C@@H](C)C(=O)[C@H](C)[C@@H](O)[C@]1(C)O` [ERYTHROMYCIN], 0.04359.
To `CC(C(=O)O)c1ccc(CC2CCCC2=O)cc1` (stereo unspecified) [LOXOPROFEN] belongs 0.02648; to `Cl.NCC(=O)CCC(=O)OCc1ccccc1`, 0.2289.
As for `C[C@H](NCc1ccc(OCc2cccc(F)c2)cc1)C(N)=O` [SAFINAMIDE], the Hit score came to 0.04637.
Take `C=CCc1ccc(O)c(OC)c1` [EUGENOL]: the Hit score came out at 0.2298.
In the case of `CN1C(=O)COc2c(C(=O)NC3CN4CCC3CC4)cc(Cl)cc21` (stereo unspecified) [AZASETRON] it was 0.1081; in that of `CC(=O)N[C@@H](Cc1ccc(O)cc1)C(=O)O` [ACETYL TYROSINE], 0.135; in that of `OC[C@@H](O)[C@@H](O)[C@H](O)[C@H](O)CO` [MANNITOL], 0.02698.
With `CC(C)=CCOc1ccc(/C=C/C(=O)c2ccc(OCC=C(C)C)cc2OCC(=O)O)cc1` [SOFALCONE], the Hit score came to 0.2677.
In the case of `Oc1ccc(C2CNCCc3c2cc(O)c(O)c3Cl)cc1` (stereo unspecified) [FENOLDOPAM] it was 0.226.
`CC(C(=O)O)c1cccc(Oc2ccccc2)c1` (stereo unspecified) [FENOPROFEN]: the Hit score was 0.3412.
In the case of `CCCc1ncc(C[n+]2ccccc2C)c(N)n1` [AMPROLIUM ION] it was 0.04873.
`OC[C@H]1OC(O)[C@H](O)[C@@H](O)[C@@H]1O` (stereo partly specified) [DEXTROSE] registered a Hit score of 0.07162.
`CC(C)c1nc(N(C)S(C)(=O)=O)nc(-c2ccc(F)cc2)c1/C=C/[C@@H](O)C[C@@H](O)CC(=O)O` [ROSUVASTATIN] came in with a Hit score of 0.05696.
The molecule `C=C(CC)C(=O)c1ccc(OCC(=O)O)c(Cl)c1Cl` [ETHACRYNIC ACID] returned a Hit score of 0.1661.
`OC[C@H]1O[C@@H](O[C@@H]2[C@@H](CO)O[C@](O)(CO)[C@H]2O)[C@H](O)[C@@H](O)[C@H]1O` [LACTULOSE] gave a Hit score of 0.1124.
On to `COc1cc2c(cc1OC)C1CC(=O)C(CC(C)C)CN1CC2` (stereo unspecified) [TETRABENAZINE], for which the Hit score was -0.001281.
In turn, `Nc1ccc(S(=O)(=O)NC(=O)c2ccccc2)cc1` [SULFABENZAMIDE] displayed a Hit score of 0.04858.
To `CCOCCn1c(C2CCN(CCc3ccc(C(C)(C)C(=O)O)cc3)CC2)nc2ccccc21` [BILASTINE] belongs 0.1453.
To `CCN(CC)CCCC(C)Nc1ccnc2cc(Cl)ccc12` (stereo unspecified) [CHLOROQUINE] belongs 0.0509; to `CS(=O)(=O)c1ccc([C@@H](O)[C@@H](CF)NC(=O)C(Cl)Cl)cc1` [FLORFENICOL], 0.1507; to `C[C@](N)(Cc1ccc(O)cc1)C(=O)O` [METYROSINE], 0.1688.
For the molecule `CC(=O)[C@H]1CC[C@H]2[C@@H]3C=CC4=CC(=O)CC[C@@]4(C)[C@@H]3CC[C@]12C` [DYDROGESTERONE], the Hit score was found to be 0.01426.
The molecule `N#C[C@@]1(c2ccc3c(N)ncnn23)O[C@H](CO)[C@@H](O)[C@H]1O` [GS-441524] came in with a Hit score of 0.865.
In the case of `c1ccc2c(c1)CCCC2C1=NCCN1` (stereo unspecified) [TETRAHYDROZOLINE] it was 0.1519; in that of `CCCCN1C[C@H](O)[C@@H](O)[C@H](O)[C@H]1CO`, 0.1529; in that of `COc1c(N2C[C@@H]3CCCN[C@@H]3C2)c(F)cc2c(=O)c(C(=O)O)cn(C3CC3)c12` [MOXIFLOXACIN], 0.09676.
In the case of `OC(CNc1ccccc1)Cn1c2ccc(Br)cc2c2cc(Br)ccc21` (stereo unspecified) it was 0.183.
